PubChem BioAssay AID686937 – Drosophila RNAi Screening Center – 2013
The deposit covers about 23,000 reagents; below is a random part of those with a known target gene and a result. 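Reduced-secretion tags in replicate 1 do not always agree with the z-scores; no criterion for assigning the tags was given.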 A plus sign joins genes that one reagent is predicted to hit. Not stated in the record: the amount of reagent.

Test: 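Genes whose loss weakens secretory pathway function in fly cells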 (primary screen)
Cell system: Drosophila S2 cells expressing secreted horseradish peroxidase
Reagent: long dsRNA against Drosophila genes
Time to read-out: about 5.5 days (5 days dsRNA, then 12 h reporter induction)
Treatment: reporter expression induced after 5 days of dsRNA, read 12 h later; inducer not stated
Detection: 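After 5 days of dsRNA and 12 h of reporter induction, medium peroxidase read by chemiluminescence and scored as per-plate z-score; higher values mean more reporter released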
Reading the numbers: z-score: higher = more reporter secreted into medium

gene knocked down | dsRNA | z-score, replicate 1 | z-score, replicate 2 | z-score, replicate 3 | z-score, replicate 4 | phenotype, replicate 1
CG12948 | DRSC14576 | 0.27 | -0.03 | – | – | –
CG3337 | DRSC15478 | -1.16 | 0.44 | – | – | –
Takl2 (Tak1-like 2) | DRSC15650 | 0.29 | 0.32 | – | – | –
fru (fruitless) | DRSC16951 | -2.59 | -2.3 | – | – | reduced secretion
fru (fruitless) | DRSC16952 | 0.31 | 0.45 | 0.39 | 0.36 | reduced secretion
fru (fruitless) | DRSC16953 | 0.37 | 0.28 | 0.48 | 0.16 | –
fru (fruitless) | DRSC21600 | 0.31 | -0.14 | – | – | –
CG4582 | DRSC15605 | 0.2 | 0.34 | – | – | –
BomT3 (Bomanin Tailed 3) | DRSC13537 | 0.13 | 0.48 | – | – | –
BomT3 (Bomanin Tailed 3) | DRSC15871 | 0.16 | 0.36 | – | – | –
CG7333 | DRSC16229 | 0.48 | 0.54 | – | – | –
Arpc3A (Actin-related protein 2/3 complex, subunit 3A) | DRSC15596 | 0.16 | -0.18 | – | – | –
CG17985 | DRSC06702 | 0.07 | 0.26 | – | – | –
fsd (fates-shifted) | DRSC06166 | 0.26 | 0.51 | – | – | –
CG11686 | DRSC14350 | -0.05 | 0.31 | – | – | –
CG13982 | DRSC02314 | 0.02 | 0.32 | – | – | –
rdgBbeta | DRSC07672 | 0.43 | 0.47 | – | – | –
CG9899 | DRSC04597 | 0.36 | 0.35 | – | – | –
CG15084 | DRSC06515 | 0.21 | 0.4 | 0.13 | 0.3 | –
CG15084 | DRSC21403 | 0.66 | -0.54 | – | – | –
Meltrin | DRSC16274 | 0.16 | 0.21 | – | – | –
Meltrin | DRSC21693 | 0.28 | -0.06 | – | – | –
CG43996 + CG43997 | DRSC19456 | 0.24 | 0.01 | – | – | –
CG43996 + CG43997 | DRSC19457 | 0.24 | 0.33 | – | – | –
Cpr30B (Cuticular protein 30B) | DRSC02728 | 0.77 | 0.63 | – | – | –
Pc (Polycomb) | DRSC11873 | 0.56 | 0.42 | – | – | –
mrva (minerva) | DRSC11009 | 0.3 | 0.34 | 0.52 | 0.34 | –
mrva (minerva) | DRSC21842 | 1.02 | 0.49 | – | – | –
CG2291 | DRSC06836 | 0.25 | 0.39 | – | – | –
GCC88 (GRIP and coiled-coil domain containing 88 kDa) | DRSC14264 | 0.4 | 0.7 | – | – | –
Ref1 (RNA and export factor binding protein 1) | DRSC12497 | -1.39 | 0.18 | 0.21 | -0.31 | –
Ref1 (RNA and export factor binding protein 1) | DRSC22387 | 1.52 | 2.7 | – | – | –
mbt (mushroom bodies tiny) | DRSC20348 | -1.28 | -0.24 | – | – | –
CG6244 | DRSC10609 | 0.47 | 0.31 | – | – | –
CG32379 | DRSC10318 | -0.13 | 0.15 | – | – | –
CG13032 | DRSC09912 | 0.41 | 0.35 | – | – | –
CG11977 | DRSC14454 | 0 | 0 | – | – | –
SrpRbeta (Signal recognition particle receptor beta) | DRSC21668 | -0.61 | -0.31 | – | – | –
Aven (Apoptosis and caspase activation inhibitor) | DRSC19693 | 0.52 | 0.52 | – | – | –
CG5681 | DRSC02876 | -0.33 | 0.1 | – | – | –
CG32099 | DRSC21352 | -0.65 | -0.14 | – | – | reduced secretion
azot (ahuizotl) | DRSC06051 | 0.19 | 0.29 | – | – | –
CG9988 | DRSC16587 | 0.32 | 0.42 | – | – | –
Smr (Smrter) | DRSC19495 | -3.17 | -2.55 | – | – | reduced secretion
Smr (Smrter) | DRSC20288 | -3.13 | -3.29 | – | – | reduced secretion
CG9686 | DRSC18439 | -0.87 | -0.7 | – | – | –
CG11779 | DRSC14384 | 0.13 | 0.03 | – | – | –
alpha-Spec (alpha Spectrin) | DRSC08704 | 0.24 | 0.39 | – | – | –
Pfdn1 (Prefoldin 1) | DRSC02325 | 0.26 | 0.12 | – | – | –
neur + asRNA:CR31429 | DRSC17013 | 0.45 | 0.34 | – | – | –
prt (portabella) | DRSC16894 | 0.68 | 0.6 | – | – | –
Ctf4 (Chromosome transmission fidelity 4) | DRSC06380 | 0.4 | 0.4 | – | – | –
CG9662 | DRSC00723 | 0.18 | 0.41 | – | – | –
conu (conundrum) | DRSC07810 | 0.73 | 0.53 | – | – | –
CG43295 | DRSC09416 | 0.28 | 0.2 | – | – | –
CG2533 | DRSC19855 | 0.48 | 0.55 | – | – | –
lncRNA:CR43270 (long non-coding RNA::CR43270) | DRSC11575 | 0.36 | 0.13 | – | – | –
CaBP1 (calcium-binding protein 1) | DRSC01984 | 0.23 | 0.19 | – | – | –
CG11920 | DRSC14439 | 0.12 | 0.03 | – | – | –
unk (unkempt) | DRSC17093 | 0.38 | 0.38 | – | – | –
CG2577 | DRSC19863 | 0.42 | 0.15 | – | – | –
GstO1 (Glutathione S transferase O1) | DRSC10688 | 0.47 | 0.22 | – | – | –
CG7227 | DRSC03032 | 0.17 | 0.14 | – | – | –
CG11723 | DRSC00324 | 0.2 | 0.42 | – | – | –
CG31729 | DRSC02524 | 0.01 | 0.12 | – | – | –
CG31729 | DRSC02946 | 0.26 | -0.03 | – | – | –
CG2201 | DRSC03721 | -0.25 | -0.22 | – | – | –
CG7724 | DRSC10905 | 0.43 | 0.69 | – | – | –
SmydA-7 (SET and MYND domain containing, arthropod-specific, member 7) | DRSC07340 | 0.09 | 0.22 | – | – | –
lncRNA:CR31044 (long non-coding RNA::CR31044) | DRSC22451 | -0.31 | 0.03 | – | – | –
CG5708 | DRSC02881 | -0.39 | 0.14 | – | – | –
Zasp67 (Z band alternatively spliced PDZ-motif protein 67) | DRSC10169 | 0.4 | 0 | – | – | –
Cpr65Ec (Cuticular protein 65Ec) | DRSC11025 | 0.42 | -0.63 | – | – | –
e(r) (enhancer of rudimentary) | DRSC18768 | 0.3 | 0.35 | – | – | –
Arl6 (ADP ribosylation factor-like 6) | DRSC07031 | 0.32 | 0.09 | – | – | –
CG13168 | DRSC06295 | 0.14 | 0.17 | – | – | –
CG7896 | DRSC16335 | 0.52 | 0.5 | – | – | –
PIG-F (Phosphatidylinositol glycan anchor biosynthesis class F) | DRSC11069 | 0.26 | 0.17 | – | – | –
CG8563 | DRSC10996 | 0.28 | 0.31 | – | – | –
ND-20 (NADH dehydrogenase (ubiquinone) 20 kDa subunit) | DRSC20164 | -7.69 | 0.19 | – | – | reduced secretion
fest (wurstfest) | DRSC07349 | 0.33 | 0.21 | – | – | –
Psi (P-element somatic inhibitor) | DRSC07519 | -0.25 | -0.07 | – | – | –

Limited to “z-score, replicate 1”, for 4 of the entries above:
alpha-Spec (alpha Spectrin) [DRSC08704]: 0.24
Pfdn1 (Prefoldin 1) [DRSC02325]: 0.26
neur + asRNA:CR31429 [DRSC17013]: 0.45
prt (portabella) [DRSC16894]: 0.68
